From PMC7275063
These are yes or no findings as the source states them, for the method shown. In cells and extracts the contact can be indirect. Some entries that bind do so weakly or less than the wild type. Values belong to the substance of their own block, whether it stands above or below them.

Protein sequences, listed by entry. Tags and fused reporters are not part of them. Lines headed by an entry give the natural chain unless they say otherwise; changes in a name come on top.
UniProt Q6PHN9: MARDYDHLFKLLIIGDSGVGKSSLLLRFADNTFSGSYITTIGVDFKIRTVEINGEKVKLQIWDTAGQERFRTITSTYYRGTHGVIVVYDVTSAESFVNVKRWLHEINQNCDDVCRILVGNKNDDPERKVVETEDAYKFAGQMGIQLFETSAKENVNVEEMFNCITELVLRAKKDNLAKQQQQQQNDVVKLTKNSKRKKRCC
UniProt P62820: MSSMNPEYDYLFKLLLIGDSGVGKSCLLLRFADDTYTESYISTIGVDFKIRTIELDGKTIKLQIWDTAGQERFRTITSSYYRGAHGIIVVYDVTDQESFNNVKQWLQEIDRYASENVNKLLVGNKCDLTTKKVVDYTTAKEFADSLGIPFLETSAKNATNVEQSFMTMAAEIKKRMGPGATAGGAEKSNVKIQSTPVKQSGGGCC
UniProt Q15286: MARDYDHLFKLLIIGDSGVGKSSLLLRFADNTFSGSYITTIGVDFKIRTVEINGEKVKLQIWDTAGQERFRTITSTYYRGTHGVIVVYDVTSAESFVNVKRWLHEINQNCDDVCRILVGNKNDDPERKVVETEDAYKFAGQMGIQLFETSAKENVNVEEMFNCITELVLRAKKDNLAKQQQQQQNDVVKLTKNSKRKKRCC
UniProt Q86WG5: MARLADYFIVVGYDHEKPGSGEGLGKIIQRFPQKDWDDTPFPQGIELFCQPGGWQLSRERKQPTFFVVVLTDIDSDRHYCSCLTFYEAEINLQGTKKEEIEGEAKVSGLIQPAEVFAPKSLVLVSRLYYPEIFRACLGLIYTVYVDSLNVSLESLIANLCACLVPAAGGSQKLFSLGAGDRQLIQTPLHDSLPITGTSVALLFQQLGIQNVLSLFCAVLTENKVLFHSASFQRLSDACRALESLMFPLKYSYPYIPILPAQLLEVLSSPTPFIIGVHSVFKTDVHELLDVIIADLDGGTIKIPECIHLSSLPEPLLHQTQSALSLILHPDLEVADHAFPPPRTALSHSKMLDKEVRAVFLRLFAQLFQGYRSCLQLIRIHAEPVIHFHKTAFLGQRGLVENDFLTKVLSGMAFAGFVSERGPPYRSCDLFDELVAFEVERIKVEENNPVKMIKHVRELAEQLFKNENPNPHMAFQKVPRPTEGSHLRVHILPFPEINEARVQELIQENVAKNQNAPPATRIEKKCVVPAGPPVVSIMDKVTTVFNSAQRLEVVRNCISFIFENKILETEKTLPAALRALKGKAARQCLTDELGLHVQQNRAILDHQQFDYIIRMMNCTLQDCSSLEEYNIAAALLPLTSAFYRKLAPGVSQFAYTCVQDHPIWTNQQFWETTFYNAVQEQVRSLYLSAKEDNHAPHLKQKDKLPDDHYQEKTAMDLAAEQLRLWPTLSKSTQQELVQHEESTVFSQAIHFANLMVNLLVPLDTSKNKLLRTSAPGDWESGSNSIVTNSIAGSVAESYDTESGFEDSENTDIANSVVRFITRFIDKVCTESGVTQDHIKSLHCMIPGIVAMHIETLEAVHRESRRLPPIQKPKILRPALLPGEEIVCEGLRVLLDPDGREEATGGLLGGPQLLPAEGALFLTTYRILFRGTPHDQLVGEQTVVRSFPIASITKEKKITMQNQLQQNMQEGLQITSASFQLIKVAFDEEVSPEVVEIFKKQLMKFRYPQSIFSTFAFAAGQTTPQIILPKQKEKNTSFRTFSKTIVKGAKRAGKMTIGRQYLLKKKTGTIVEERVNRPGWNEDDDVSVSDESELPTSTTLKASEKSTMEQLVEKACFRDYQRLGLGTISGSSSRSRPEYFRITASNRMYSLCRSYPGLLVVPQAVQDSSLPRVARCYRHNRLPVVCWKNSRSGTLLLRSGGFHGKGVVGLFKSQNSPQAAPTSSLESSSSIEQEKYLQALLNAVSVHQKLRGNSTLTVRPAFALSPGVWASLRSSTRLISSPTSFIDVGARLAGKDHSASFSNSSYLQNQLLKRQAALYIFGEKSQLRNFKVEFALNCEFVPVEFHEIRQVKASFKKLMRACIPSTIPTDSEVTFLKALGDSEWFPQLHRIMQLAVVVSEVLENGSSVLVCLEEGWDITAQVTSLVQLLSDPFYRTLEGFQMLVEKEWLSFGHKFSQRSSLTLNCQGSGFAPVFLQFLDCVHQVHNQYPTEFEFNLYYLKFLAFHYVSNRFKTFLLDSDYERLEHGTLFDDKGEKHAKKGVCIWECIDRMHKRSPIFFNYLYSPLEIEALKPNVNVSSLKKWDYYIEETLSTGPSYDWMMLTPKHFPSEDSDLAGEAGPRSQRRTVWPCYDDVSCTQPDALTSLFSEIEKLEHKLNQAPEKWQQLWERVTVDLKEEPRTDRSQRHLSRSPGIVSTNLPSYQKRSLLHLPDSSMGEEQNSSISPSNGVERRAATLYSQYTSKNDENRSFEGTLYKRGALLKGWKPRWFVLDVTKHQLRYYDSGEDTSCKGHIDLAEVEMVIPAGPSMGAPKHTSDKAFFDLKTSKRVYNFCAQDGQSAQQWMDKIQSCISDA
UniProt O95248: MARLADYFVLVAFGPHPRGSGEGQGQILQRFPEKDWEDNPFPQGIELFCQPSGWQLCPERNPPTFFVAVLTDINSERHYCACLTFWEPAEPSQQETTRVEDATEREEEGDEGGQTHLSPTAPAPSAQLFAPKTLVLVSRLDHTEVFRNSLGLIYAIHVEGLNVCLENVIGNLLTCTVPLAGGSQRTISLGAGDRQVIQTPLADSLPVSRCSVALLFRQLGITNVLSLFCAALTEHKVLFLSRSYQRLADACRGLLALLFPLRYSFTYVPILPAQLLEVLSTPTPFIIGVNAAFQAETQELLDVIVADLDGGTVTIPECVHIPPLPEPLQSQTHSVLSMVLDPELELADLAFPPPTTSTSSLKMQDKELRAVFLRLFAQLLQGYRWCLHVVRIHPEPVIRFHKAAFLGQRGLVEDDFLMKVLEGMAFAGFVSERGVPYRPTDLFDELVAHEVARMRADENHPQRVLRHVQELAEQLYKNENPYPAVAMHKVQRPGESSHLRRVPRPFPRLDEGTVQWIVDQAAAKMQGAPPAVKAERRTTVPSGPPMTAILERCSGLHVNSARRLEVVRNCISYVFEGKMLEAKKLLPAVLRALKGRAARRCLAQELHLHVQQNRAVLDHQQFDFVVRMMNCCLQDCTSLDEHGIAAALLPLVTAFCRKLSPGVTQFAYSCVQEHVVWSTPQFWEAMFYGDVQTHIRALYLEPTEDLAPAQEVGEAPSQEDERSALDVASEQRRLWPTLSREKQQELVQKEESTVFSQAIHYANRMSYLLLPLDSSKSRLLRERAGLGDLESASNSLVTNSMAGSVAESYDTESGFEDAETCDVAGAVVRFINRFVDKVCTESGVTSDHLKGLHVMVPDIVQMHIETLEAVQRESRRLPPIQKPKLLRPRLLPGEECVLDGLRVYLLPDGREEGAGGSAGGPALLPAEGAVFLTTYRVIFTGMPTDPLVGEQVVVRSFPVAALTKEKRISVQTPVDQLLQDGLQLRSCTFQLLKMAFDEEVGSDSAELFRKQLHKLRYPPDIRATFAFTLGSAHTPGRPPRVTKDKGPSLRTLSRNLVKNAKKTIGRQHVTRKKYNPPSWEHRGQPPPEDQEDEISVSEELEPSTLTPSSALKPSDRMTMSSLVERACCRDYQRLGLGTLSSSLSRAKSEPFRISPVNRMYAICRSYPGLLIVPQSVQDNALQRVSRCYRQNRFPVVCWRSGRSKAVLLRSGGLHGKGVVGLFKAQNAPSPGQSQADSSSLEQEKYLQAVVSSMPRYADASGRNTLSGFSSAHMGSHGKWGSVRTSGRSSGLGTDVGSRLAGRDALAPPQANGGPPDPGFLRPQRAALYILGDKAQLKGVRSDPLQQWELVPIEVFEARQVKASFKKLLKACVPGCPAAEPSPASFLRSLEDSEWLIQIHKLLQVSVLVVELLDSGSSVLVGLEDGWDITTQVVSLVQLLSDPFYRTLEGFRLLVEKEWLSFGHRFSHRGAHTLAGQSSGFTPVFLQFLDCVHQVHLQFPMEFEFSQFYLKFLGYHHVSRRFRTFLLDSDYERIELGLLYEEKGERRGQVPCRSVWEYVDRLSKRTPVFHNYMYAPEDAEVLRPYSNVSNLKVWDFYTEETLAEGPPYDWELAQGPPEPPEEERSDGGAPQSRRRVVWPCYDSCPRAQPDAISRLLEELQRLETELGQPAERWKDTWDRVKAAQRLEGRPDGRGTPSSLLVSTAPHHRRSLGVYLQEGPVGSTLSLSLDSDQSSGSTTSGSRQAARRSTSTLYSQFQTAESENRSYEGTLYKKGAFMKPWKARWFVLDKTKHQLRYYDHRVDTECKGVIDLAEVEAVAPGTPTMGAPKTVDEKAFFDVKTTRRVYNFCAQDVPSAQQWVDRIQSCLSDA

Assays:
GST-Rab35 (mouse) [1] = molecular target: GST-Rab35 (mouse) (UniProt Q6PHN9); experiment: pull-down; GST-Rab35•GTP; MTM1, MTMR1 or MTMR2 co-expressed with MTMR5 (Supplementary Fig. 1d-f); only the target purified
[2] = molecular target: eGFP-Rab35DN (S22N), GDP-locked, dominant-negative (mouse) (UniProt Q6PHN9); experiment: co-IP; eGFP-Rab35CA or -DN captured on eGFP-Trap_MA beads from lysates of HEK293T cells co-expressing MTMR13 constructs, 24 h after transfection; 90 min at 4 °C; immunoblot
[3] = molecular target: eGFP-Rab35CA (Q67L), GTP-locked, constitutively active (mouse) (UniProt Q6PHN9); experiment: as above
GST-Rab35 (mouse) [4] = molecular target: GST-Rab35 (mouse) (UniProt Q6PHN9); experiment: pull-down; immobilised active GST-Rab35•GTP; lysates of HEK293T cells co-expressing eGFP-MTM1, -MTMR1 or -MTMR2 with FLAG-MTMR13; immunoblot; only the target purified
GST-Rab1A [5] = molecular target: GST-Rab1A (UniProt P62820); experiment: pull-down; 100 µg GST-Rab fusion on GST-bind beads loaded with 1 mM GTPγS; lysates of HEK293T cells overexpressing one tagged MTMR on its own; 2 h at 4 °C; immunoblot for eGFP or FLAG; only the target purified
GST-Rab35 (mouse) [6] = molecular target: GST-Rab35 (mouse) (UniProt Q6PHN9); experiment: as above
GST-Rab1A [7] = molecular target: GST-Rab1A (UniProt P62820); experiment: pull-down; 100 µg GST-Rab fusion on GST-bind beads loaded with 1 mM GDP; lysates of transfected HEK293T cells; 2 h at 4 °C; immunoblot; only the target purified
[8] = molecular target: GFP-Rab35endo (endogenous Rab35 tagged with GFP in TALEN-edited knock-in HeLa cells) (human (endogenous in HeLa)) (UniProt Q15286); experiment: co-IP; endogenous eGFP-Rab35 captured on eGFP-Trap_MA beads from lysates of KI HeLa cells expressing mCherry-MTMR13 or its domains; 90 min at 4 °C; immunoblot

Substance: MTMR13ΔDENN (DENN-domain truncation mutant of MTMR13, aa493-1849) (from UniProt Q86WG5 493-1849) (domain or fragment)
binding [2]: no binding | binding [3]: binds

Substance: eGFP-MTMR5 (from UniProt O95248 1-1868)
binding (GST-Rab35 (mouse) [6]): binds

Substance: mCherry-MTMR13 (full length) (from UniProt Q86WG5 1-1849)
binding [8]: binds

Results, then the substance that gave them:

binding (GST-Rab35 (mouse) [1]): binds
Substance: MTMR5 co-expressed with eGFP-tagged active MTMRs (mCherry-MTMR5) (from UniProt O95248 1-1868)

binding (GST-Rab35 (mouse) [4]): binds | binding (GST-Rab1A [5]): no binding | binding (GST-Rab35 (mouse) [6]): binds | binding (GST-Rab1A [7]): no binding
Substance: N-terminally FLAG-tagged MTMR13 (from UniProt Q86WG5 1-1849)

binding [8]: binds
Substance: mCherry-tagged MTMR13 phosphatase (PTP) domain (aa1100-1591) (from UniProt Q86WG5 1100-1591) (domain or fragment)
